Source: the supplement of paper PMC12067093, “Discovery and optimisation of a covalent ligand for TRIM25 and its application to targeted protein ubiquitination” (Chemical Science, 2025)
Some of the results follow.

Amino acid sequences for entries named in this document (tags omitted). A change or cut given only in a name is not applied to a line headed by its entry.
UniProt O00330, whole entry: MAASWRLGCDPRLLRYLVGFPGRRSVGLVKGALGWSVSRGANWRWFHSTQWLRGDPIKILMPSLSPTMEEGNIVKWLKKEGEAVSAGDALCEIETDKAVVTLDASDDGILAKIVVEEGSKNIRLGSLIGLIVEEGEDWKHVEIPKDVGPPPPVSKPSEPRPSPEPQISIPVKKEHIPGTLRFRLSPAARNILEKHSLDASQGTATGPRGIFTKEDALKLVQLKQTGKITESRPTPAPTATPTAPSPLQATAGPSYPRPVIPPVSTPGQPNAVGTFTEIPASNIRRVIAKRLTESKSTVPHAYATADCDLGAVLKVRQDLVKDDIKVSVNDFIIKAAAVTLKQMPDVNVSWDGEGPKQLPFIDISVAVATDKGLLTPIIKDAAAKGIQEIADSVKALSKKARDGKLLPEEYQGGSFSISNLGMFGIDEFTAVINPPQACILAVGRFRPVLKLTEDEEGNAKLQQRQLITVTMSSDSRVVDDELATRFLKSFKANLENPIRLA
UniProt O00151: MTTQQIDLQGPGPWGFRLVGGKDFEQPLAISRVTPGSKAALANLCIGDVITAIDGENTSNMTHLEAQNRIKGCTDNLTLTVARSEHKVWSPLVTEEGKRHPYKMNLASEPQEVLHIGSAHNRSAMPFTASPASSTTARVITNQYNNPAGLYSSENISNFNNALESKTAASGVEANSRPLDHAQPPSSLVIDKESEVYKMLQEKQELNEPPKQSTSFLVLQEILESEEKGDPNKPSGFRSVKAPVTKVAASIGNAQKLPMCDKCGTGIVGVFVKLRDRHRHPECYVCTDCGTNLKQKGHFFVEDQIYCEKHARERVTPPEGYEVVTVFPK
UniProt P05165: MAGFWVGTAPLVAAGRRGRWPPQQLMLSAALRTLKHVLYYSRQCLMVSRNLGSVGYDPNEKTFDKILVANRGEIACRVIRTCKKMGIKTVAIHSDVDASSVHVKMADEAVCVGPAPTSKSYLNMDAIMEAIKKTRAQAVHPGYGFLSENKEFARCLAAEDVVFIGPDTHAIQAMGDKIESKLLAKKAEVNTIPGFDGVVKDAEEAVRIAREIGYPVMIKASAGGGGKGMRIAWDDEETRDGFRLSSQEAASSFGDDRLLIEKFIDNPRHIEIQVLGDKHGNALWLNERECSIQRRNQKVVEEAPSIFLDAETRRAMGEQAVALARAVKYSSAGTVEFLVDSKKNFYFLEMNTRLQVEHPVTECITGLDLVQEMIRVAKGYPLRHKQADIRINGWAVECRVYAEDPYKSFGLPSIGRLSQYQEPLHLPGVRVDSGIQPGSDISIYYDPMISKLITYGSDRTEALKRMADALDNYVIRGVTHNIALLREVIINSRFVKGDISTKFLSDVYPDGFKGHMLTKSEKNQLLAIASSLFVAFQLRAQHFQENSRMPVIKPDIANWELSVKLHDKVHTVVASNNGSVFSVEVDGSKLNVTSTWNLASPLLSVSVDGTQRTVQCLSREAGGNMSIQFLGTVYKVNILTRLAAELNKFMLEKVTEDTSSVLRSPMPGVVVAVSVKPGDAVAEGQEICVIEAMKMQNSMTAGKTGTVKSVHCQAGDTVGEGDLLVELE
UniProt P08559, whole entry, looked up: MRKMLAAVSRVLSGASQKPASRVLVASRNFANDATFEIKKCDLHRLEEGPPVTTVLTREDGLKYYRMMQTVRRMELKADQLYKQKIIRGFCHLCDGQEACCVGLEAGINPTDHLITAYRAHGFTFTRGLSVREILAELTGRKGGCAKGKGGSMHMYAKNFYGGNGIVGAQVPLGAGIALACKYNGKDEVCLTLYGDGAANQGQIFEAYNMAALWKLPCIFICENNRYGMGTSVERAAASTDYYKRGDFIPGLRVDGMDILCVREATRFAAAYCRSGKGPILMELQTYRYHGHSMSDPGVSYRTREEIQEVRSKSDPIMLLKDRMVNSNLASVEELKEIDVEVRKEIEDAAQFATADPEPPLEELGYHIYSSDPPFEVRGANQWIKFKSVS
UniProt P12004, whole entry, looked up: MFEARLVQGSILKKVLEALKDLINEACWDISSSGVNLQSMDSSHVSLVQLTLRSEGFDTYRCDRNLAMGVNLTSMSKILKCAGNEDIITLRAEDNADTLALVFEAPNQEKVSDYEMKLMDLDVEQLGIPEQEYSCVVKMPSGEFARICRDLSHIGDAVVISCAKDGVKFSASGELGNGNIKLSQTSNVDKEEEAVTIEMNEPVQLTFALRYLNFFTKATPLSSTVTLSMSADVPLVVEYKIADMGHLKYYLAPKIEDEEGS
UniProt Q9NR12, whole entry, looked up: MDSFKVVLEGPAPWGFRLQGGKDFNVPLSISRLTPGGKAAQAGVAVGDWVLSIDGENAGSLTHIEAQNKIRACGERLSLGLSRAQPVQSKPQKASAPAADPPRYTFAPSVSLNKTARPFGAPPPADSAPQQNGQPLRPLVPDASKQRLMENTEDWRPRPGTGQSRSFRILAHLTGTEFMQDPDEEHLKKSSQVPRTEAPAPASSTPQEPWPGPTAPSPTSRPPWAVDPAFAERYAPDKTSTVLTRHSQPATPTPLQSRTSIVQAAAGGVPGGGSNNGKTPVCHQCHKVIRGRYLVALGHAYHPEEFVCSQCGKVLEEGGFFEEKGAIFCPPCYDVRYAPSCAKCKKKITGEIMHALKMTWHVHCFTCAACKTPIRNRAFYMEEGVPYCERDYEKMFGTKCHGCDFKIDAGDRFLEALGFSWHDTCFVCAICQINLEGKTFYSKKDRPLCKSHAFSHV
UniProt Q9HBE1: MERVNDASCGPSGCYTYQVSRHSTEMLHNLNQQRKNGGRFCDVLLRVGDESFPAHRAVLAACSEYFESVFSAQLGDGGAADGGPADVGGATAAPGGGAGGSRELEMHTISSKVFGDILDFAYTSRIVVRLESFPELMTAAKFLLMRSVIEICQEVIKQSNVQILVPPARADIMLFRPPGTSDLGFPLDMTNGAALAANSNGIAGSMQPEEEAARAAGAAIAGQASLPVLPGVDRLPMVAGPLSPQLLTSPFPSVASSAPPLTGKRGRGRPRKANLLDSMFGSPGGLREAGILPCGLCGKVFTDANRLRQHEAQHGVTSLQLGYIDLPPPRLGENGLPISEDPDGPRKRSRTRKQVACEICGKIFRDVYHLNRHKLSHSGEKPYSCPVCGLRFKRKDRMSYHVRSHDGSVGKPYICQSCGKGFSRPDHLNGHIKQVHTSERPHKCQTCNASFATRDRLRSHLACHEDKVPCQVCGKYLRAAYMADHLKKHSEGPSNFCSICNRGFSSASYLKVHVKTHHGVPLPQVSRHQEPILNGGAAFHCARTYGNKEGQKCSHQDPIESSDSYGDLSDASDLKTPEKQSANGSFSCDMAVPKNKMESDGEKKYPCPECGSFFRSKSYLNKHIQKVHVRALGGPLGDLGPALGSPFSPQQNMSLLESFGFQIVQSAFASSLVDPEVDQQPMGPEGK
UniProt Q8WUM4: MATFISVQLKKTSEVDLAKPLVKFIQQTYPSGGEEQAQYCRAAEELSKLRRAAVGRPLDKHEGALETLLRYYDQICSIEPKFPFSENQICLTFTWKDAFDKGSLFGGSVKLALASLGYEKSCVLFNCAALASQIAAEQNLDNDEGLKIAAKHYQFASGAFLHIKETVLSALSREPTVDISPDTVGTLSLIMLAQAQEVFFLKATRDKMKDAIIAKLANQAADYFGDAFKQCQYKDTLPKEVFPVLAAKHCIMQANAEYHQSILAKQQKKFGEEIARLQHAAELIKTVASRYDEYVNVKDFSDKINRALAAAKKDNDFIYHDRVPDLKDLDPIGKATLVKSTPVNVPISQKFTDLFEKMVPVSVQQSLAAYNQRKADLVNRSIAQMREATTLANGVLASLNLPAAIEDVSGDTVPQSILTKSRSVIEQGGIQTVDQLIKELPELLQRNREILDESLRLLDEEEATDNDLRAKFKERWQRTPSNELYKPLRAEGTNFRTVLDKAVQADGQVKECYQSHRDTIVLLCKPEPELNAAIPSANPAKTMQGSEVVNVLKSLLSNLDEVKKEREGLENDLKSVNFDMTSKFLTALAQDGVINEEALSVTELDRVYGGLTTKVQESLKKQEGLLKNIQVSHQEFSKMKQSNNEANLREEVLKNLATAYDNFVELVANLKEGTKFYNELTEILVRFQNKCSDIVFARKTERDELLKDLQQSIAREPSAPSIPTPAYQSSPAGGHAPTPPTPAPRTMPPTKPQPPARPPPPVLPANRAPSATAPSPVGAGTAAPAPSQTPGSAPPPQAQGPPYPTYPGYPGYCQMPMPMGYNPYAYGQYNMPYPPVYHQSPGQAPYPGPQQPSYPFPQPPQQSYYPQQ
UniProt P49585: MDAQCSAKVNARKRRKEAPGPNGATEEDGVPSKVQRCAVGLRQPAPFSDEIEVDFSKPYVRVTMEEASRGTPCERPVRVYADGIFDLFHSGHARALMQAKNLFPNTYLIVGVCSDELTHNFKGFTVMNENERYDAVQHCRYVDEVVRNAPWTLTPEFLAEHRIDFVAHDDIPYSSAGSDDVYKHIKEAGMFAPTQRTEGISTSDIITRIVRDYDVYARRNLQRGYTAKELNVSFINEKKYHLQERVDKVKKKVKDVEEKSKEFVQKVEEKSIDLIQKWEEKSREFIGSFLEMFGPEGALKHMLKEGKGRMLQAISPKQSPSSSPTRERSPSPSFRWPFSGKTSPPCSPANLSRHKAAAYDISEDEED
UniProt P30101, whole entry, looked up: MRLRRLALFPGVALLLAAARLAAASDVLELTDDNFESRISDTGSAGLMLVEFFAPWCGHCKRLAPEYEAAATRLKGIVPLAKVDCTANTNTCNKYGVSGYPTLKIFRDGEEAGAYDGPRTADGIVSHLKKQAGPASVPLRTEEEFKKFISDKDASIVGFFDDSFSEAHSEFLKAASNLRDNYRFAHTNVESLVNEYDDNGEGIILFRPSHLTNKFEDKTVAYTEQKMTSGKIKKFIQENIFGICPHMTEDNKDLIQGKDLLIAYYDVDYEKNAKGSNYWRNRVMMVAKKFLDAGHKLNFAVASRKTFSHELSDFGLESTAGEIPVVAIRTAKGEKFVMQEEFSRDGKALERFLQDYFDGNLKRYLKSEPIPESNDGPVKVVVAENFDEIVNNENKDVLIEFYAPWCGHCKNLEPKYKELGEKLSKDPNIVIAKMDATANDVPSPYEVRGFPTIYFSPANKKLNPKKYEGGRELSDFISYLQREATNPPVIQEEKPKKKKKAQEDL
UniProt Q15365, whole entry, looked up: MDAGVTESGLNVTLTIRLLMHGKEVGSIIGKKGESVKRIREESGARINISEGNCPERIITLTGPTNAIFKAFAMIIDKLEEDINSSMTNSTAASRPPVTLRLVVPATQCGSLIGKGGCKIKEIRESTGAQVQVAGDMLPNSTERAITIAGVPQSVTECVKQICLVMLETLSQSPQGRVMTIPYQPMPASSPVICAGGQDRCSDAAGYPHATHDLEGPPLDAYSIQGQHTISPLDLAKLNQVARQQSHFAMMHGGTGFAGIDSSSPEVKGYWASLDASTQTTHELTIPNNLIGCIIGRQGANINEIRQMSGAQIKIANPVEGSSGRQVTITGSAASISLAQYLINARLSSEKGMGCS
UniProt P09874, whole entry, looked up: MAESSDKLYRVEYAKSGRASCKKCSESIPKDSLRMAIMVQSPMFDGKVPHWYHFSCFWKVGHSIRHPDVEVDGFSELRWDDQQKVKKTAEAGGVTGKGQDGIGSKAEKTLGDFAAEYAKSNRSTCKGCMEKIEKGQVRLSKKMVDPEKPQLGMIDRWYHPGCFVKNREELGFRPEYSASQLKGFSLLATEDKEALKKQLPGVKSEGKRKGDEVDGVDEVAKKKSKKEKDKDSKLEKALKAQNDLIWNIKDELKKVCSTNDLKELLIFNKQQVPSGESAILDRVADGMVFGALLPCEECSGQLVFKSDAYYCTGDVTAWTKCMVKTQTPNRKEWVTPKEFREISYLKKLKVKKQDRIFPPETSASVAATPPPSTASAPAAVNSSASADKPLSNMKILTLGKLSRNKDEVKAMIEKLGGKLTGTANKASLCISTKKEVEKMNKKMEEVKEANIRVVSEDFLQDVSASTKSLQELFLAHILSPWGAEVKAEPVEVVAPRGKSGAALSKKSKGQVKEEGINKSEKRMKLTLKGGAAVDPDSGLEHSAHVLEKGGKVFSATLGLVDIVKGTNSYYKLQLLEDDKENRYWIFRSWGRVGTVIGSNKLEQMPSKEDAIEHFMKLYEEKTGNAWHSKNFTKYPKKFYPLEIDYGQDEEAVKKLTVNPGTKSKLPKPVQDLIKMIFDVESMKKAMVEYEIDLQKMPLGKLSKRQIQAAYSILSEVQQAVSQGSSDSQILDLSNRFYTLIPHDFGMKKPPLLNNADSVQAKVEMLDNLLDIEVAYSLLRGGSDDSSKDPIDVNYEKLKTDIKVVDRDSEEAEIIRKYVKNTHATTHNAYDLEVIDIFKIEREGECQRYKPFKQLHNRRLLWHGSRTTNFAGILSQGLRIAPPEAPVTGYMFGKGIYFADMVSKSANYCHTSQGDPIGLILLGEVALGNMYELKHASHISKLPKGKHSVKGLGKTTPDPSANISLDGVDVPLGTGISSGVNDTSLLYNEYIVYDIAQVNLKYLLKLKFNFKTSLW

compound: CC1Cc2ccccc2N1C(=O)C1CCCN(C1)C(=O)CCl (mixture of isomers) [TRIM25 ligand 11 (diastereomer mixture)]; test: probe-labelled cysteine peptide fold change vs DMSO (competition) (log2 fold change); higher = less target engagement (more negative = stronger competition); settings: 10 µM; THP-1; incubation time: 4 h
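Further: competitive chemoproteomic profiling in live THP-1 cells with an iodoacetamide desthiobiotin (IA-DTB) probe, comparing probe-labelled peptide intensities in compound-treated cells against DMSO-treated controls.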

Target | probe-labelled cysteine peptide fold change
PDHX_O00330_307_STVPHAYATADCDLGAVLK (UniProt O00330) | 0.089
PDLIM1_O00151_283+289_HRHPECYVCTDCGTNLK (UniProt O00151) | 0.0514
PARP4_Q9UKK3_1099_LLVYGFIPHCTQATLCALIQEK (UniProt Q9UKK3) | 0.224
PCCA_P05165_155_CLAAEDVVFIGPDTHAIQAMGDKIESK (UniProt P05165) | -0.0809
PDHA1_P08559_261_VDGMDILCVR (UniProt P08559) | -0.000985
PDCD2L_Q9BRP1_191_LQDAVLGAAHPVPPGLPLFLPYYICVADEDDYRDFVNLDHAHSLLR (UniProt Q9BRP1) | -0.928
PCNA_P12004_162_DLSHIGDAVVISCAK (UniProt P12004) | -0.00138
PDS5A_Q29RF7_327_DSDLATQNRPLWQCFLGR (UniProt Q29RF7) | -0.0247
PDLIM7_Q9NR12_367+370_MTWHVHCFTCAACK (UniProt Q9NR12) | 0.00151
PBK_Q96KB5_70_INPICNDHYR (UniProt Q96KB5) | 0.0146
PATZ1_Q9HBE1_610_KYPCPECGSFFR (UniProt Q9HBE1) | -0.0973
PDCD6IP_Q8WUM4_512_ECYQSHR (UniProt Q8WUM4) | 0.0978
PCNT_O95613_430_CLEDLEFK (UniProt O95613) | -0.168
PDLIM5_Q96HC4_213_QPTVTSVCSETSQELAEGQRR (UniProt Q96HC4) | -0.369
PDCD11_Q14690_535_LPVITCYADAKPGLQTHGFIIR (UniProt Q14690) | 0.145
PCYT1A_P49585_113_NLFPNTYLIVGVCSDELTHNFK (UniProt P49585) | -0.118
PDXDC1_Q6P996_481_GEDVDQLVACIESK (UniProt Q6P996) | -0.00556
PCYT1A_P49585_139_GFTVMNENERYDAVQHCR (UniProt P49585) | -0.365

Target | probe-labelled cysteine peptide fold change
PARVG_Q9HBI0_314_VLYGLFCK (UniProt Q9HBI0) | -0.204
PCM1_Q15154_876_SDGSENLCTPQQSR (UniProt Q15154) | -0.203
PARP4_Q9UKK3_45_FSFSLNPQCTHIILDNADVLSQYQLNSIQK (UniProt Q9UKK3) | -0.502
PDPR_Q8NCN5_85_FCAGILSTAR (UniProt Q8NCN5) | -0.107
PDS5B_Q9NTI5_571_QLEVLVSPTCSCK (UniProt Q9NTI5) | -0.0218
PDLIM4_P50479_258_CGHGIVGTIVK (UniProt P50479) | -0.216
PDIA3_P30101_57+60_ISDTGSAGLMLVEFFAPWCGHCK (UniProt P30101) | -0.212
PCBP1_Q15365_158_AITIAGVPQSVTECVK (UniProt Q15365) | -0.266
PARP1_P09874_298_VADGMVFGALLPCEECSGQLVFK (UniProt P09874) | -0.104
PDLIM7_Q9NR12_388_AFYMEEGVPYCERDYEK (UniProt Q9NR12) | -0.418
PDHB_P11177_249_PVGHCLEAAAVLSK (UniProt P11177) | 0.0222
PCGF5_Q86SE9_42+53_TCIVQHFEDSNDCPR (UniProt Q86SE9) | 0.0601
PAXX_Q9BUH6_180_CPGESLINPGFK (UniProt Q9BUH6) | -0.17
PDLIM2_Q96JY6_310_YRHPGCYTCADCGLNLK (UniProt Q96JY6) | -0.081
PARP1_P09874_845_IEREGECQR (UniProt P09874) | -0.00747
PDHA1_P08559_261_RGDFIPGLRVDGMDILCVR (UniProt P08559) | -0.514
PCYT2_Q99447_110_YNCDFCVHGNDITLTVDGR (UniProt Q99447) | -0.0584

Retrieved one by one from the entries so far (three):
Target | probe-labelled cysteine peptide fold change
PCBP1_Q15365_158_AITIAGVPQSVTECVK (UniProt Q15365) | -0.266
PDLIM1_O00151_283+289_HRHPECYVCTDCGTNLK (UniProt O00151) | 0.0514
PATZ1_Q9HBE1_610_KYPCPECGSFFR (UniProt Q9HBE1) | -0.0973
